Reference: patent US20100323950A1, “USE OF BETA-MELANOTROPIN AS A THERAPEUTIC AGENT, EG FOR THE TREATMENT OF AIDS OR ALZHEIMER” (priority 2007, published 2010)
Part of at least one peptide drawing is inferred or uncertain, most often the ends.

Tests used:
[1] = test system: hepatitis B virus (HBV) ayw strain; test: HBV replication assay in HepG2-2.2.15 cells (TaqMan PCR of secreted HBV DNA); type: cell-based; conditions: peptide 10 micrograms per ml, six days, HBV DNA in supernatant
HCMV strain AD169 = test: HCMV plaque reduction assay in MRC-5 cells; type: cell-based; conditions: HCMV AD169 in MRC-5 cells; peptide 10 micrograms per ml; 7-10 days

CSCC[C@H](NC(=O)[C@H](CCCNC(=N)N)NC(=O)[C@H](Cc1ccc(O)cc1)NC(=O)[C@@H]1CCCN1C(=O)CNC(=O)[C@H](CCC(=O)O)NC(=O)[C@H](CC(=O)O)NC(=O)[C@H](CCCCN)NC(=O)[C@H](CCCCN)NC(=O)[C@H](CCC(=O)O)NC(=O)[C@H](C)N)C(=O)N[C@@H](CCC(=O)O)C(=O)N[C@@H](Cc1c[nH]cn1)C(=O)N[C@@H](Cc1ccccc1)C(=O)N[C@@H](CCCNC(=N)N)C(=O)N[C@@H](Cc1c[nH]c2ccccc12)C(=O)NCC(=O)N[C@@H](CO)C(=O)N1CCC[C@H]1C(=O)N1CCC[C@H]1C(=O)N[C@@H](CCCCN)C(=O)N[C@@H](CC(=O)O)C(=O)O [Beta MSH]
% inhibition of HBV replication in HEP G2 cells [1]: 24.8%
% plaque reduction (HCMV strain AD169): 2.5%
